From publication PMC9992712
Results are given in words; binding and its absence hold for the method and conditions named. In cells and extracts the contact can be indirect. A yes stands for co-enrichment or nearness to the bait. Other partners may have been found. Sequences can lack the tags named with a protein.

T1: Atp6 subunit C-terminally tagged by HA-6xHis (S. cerevisiae) (UniProt P00854)
T1 sequence: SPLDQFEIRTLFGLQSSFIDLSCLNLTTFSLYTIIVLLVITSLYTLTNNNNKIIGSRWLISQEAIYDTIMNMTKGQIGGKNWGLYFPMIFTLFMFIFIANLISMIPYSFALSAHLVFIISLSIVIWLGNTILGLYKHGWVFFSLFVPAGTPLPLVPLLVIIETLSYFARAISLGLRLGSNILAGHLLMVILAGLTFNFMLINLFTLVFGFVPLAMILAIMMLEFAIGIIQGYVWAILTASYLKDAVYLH

B1: Mco10 (Mitochondrial class one protein of 10 kDa) (protein, UniProt Q3E824 1-90)
chain: MGAAYKVFGKTVQPHVLAISTFIATAAVASYFTTKPKTKNEGKNSSALSQQKSGESSNSDAMGKDDDVVKSIEGFLNDLEKDTRQDTKAN
B2: ATP synthase subunit δ/Atp16 (protein, UniProt Q12165 23-160)
chain: AEAAAASSGLKLQFALPHETLYSGSEVTQVNLPAKSGRIGVLANHVPTVEQLLPGVVEVMEGSNSKKFFISGGFATVQPDSQLCVTAIEAFPLESFSQENIKNLLAEAKKNVSSSDAREAAEAAIQVEVLENLQSVLK
B3: ATP synthase subunit ε/Atp15 (protein, UniProt P21306 1-62)
chain: MSAWRKAGISYAAYLNVAAQAIRSSLKTELQTASVLNRSQTDAFYTQYKNGTAASEPTPITK
B4: ATPase activity inhibitor protein Inh1 (protein, UniProt P01097 23-85)
chain: SEGSTGTPRGSGSEDSFVKRERATEDFFVRQREKEQLRHLKEQLEKQRKKIDSLENKIDSMTK
B5: ATP synthase subunit k/Atp19 (protein, UniProt P81451 1-68)
chain: MGAAYHFMGKAIPPHQLAIGTLGLLGLLVVPNPFKSAKPKTVDIKTDNKDEEKFIENYLKKHSEKQDA
B6: ATP synthase subunit g/Atp20 (protein, UniProt Q12233 1-115)
chain: MLSRIQNYTSGLVSKANLLSSKALYYGKVGAEISKQIYLKEGLQPPTVAQFKSVYSNLYKQSLNFALKPTEVLSCLKNIQKNELLKYGAYGIQLIGFYSVGEIIGRRKLVGYKHH
B7: ATP synthase subunit e/Atp21 (protein, UniProt P81449 1-96)
chain: MSTVNVLRYSALGLGLFFGFRNDMILKCNAKKKEEQAQYEEKLKLVEEAKKEYAKLHPVVTPKDVPANASFNLEDPNIDFERVILNAVESLKEAST
B8: ATP synthase subunit i/Atp18 (protein, UniProt P81450 1-59)
chain: MLKRFPTPILKVYWPFFVAGAAVYYGMSKAADLSSNTKEFINDPRNPRFAKGGKFVEVD

Molecular target: T1, Atp6 subunit C-terminally tagged by HA-6xHis (S. cerevisiae)
Test: affinity purification with mass spectrometry; Atp6-HA-6His held on Ni-NTA agarose overnight; 1% N-dodecyl-β-maltoside extract of sonicated S. cerevisiae mitochondrial membranes; beads boiled, 15% SDS-PAGE, 5-20 kDa region analysed by LC/MS

binding, binds:
Cyt c (S. cerevisiae)

Molecular target: T1, Atp6 subunit C-terminally tagged by HA-6xHis (S. cerevisiae)
Test: as above
Remark: another data set of the same source

binding, binds:
B1
B2
B3
B4
B5
B6
B7
B8
